Measured values from PubChem BioAssay AID1347423 (Functional Genomics Laboratory (NCATS/FGL), 2020).
About 210 (0.4%) of roughly 52,000 sequences were called active.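 Rule for the calls: active = gene whose silencing raises cell survival under the drug, median off-target-corrected z-score across its silencing RNAs 2 or more; inactive = the rest.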 This is one part of the list.

test: Resistance to Poly (ADP-Ribose) Polymerase inhibitor: Gene Identification via Genome-wide siRNA Screen; conditions: mouse BRCA2 R2336H ES cells, olaparib, CellTiter-Glo viability; stronger effect = higher value
Outline: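 Mouse BRCA2 R2336H ES cells were reverse-transfected with siRNA (20 nM final), treated at 48 h with 500 nM olaparib, and read by CellTiter-Glo after 72 h. Scores: MAD-based z per siRNA, median per gene, seed off-target correction.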

Sequence | z-score
GCAUGGAGUGUGCAUUCCATT against D8Ertd325e | inactive: -1.55
GGACUUGCCUCCAGAAAAUTT against 0610041E09Rik | inactive: 1
GGAGAACAGUCUUGAGAAATT against Crisp3 | inactive: -0.805
GCGAAUGAAUUUUCCCAUATT against ORF34 | inactive: 1.01
CCUCAUUGGUUUGACCCAGTT against Hsd17b9 | inactive: 0.385
GGUUUCAGGUUGAAGACCATT against Pold2 | inactive: -0.706
GGUACUUUACGAACAUCUGTT against Sall1 | inactive: -0.857
GGAGAGCUUGUUCAAGUGCTT against BC003332 | inactive: -0.877
GGCAGAUAAGAAAAAUCCUTT against 9.83E+24 | inactive: 1.11
GGCGUAUGUUUGUUGGUUGTT against Sertad3 | inactive: 0.807
CGUCCUCAGGCAAAUGACUTT against 5730407K14Rik | inactive: -1.46
GUGGCAGAAAACACUGCCATT against D11Ertd99e | inactive: -0.512
GGAGCAAGUGAUGAUGACCTT against Pkp1 | inactive: -1.01
GGAACUAGAGUCUCAAGUATT against 2610206B13Rik | inactive: 1.1
GGAAUGUGCGGAAGACAUATT against Gfer | inactive: 0.244
GGUUGUUCAUGAGCCGAACTT against Rpl18 | inactive: -3.01
GCAUCGCAUAUUGGAAUGCTT against Lim2 | inactive: 0.395
GGUGUGCGUCACCAAAAAATT against Rgs19ip1 | inactive: 0.0333
CCAGAUUGUCACUUGCUACTT against A430090E18Rik | inactive: 0.499
CCUAGUCAUAUUCUACAGUTT against 4931409K22Rik | inactive: -1.06
CCCAAAAGUUUUUACAGCUTT against Ttpa | inactive: 0.0903
GAAGAGGGCACCUAGUUUCTT against Cox7b | inactive: -0.211
GGAAGUGACAUCACAGACGTT against 1810009N02Rik | inactive: -0.298
GGAAAUUCUUUGGUGAAAUTT against Wbscr17 | inactive: -0.364
CGAUUUCUGCUCCUCAUUUTT against 9130019O22Rik | inactive: 1.96
GUUUCCGGUCAGAGUGUGATT against Stard10 | inactive: -1.78

Sequence | z-score
GGCAAGUGGCUCUUUGGUGTT against Cysltr1 | inactive: 0.535
GGACAAAGAAAAUACGAAATT against Olfr593 | inactive: 0.121
GGUUGAGUAGUUGAUUUUCTT against Hemgn | inactive: 0.915
GCAAGCUAUCAGGUGCAGUTT against Rnpepl1 | inactive: -0.707
GGGUAAACCUCUCUUGUUATT against Hs3st3a | inactive: 1.06
GCCUUUGUUAAUGUUCGCUTT against H28 | inactive: 0.488
GGUGGCACGAUGCUAUGUUTT against Gpr109b | inactive: -1.86
CGAGAGAGUGUUACCAUCGTT against Prkcn | inactive: 1.44
GAACUGACUUCACAUAAAGTT against Nrtn | inactive: 1.09
GGAGAGAACUUGUUCAUGATT against 4833432P19Rik | inactive: -0.896
CCUAUACCUUGGACUUCCGTT against 1700018O18Rik | inactive: 2.13
CCACCCUAAUCCAUUUUUGTT against BC053917 | inactive: 0.0441
GGAUACCUUCCUCUUACACTT against Bloc1s3 | inactive: -0.356
GCCAGUGGUGCUAGCAGAUTT against Mtnr1a | inactive: -0.707
GGGCAUGAAUGGUUACUUATT against Mllt6 | inactive: 1.46
CGACCAGACACGGAAUGUATT against Mbnl1 | inactive: -2.68
GGCCAUACGCAAGCUCAAGTT against 6430402L03Rik | inactive: -2.18
CCAGUCUCCGCCUCAGUAATT against Gm720 | inactive: 0.171
GGAUUUUUAUGAUAGUGACTT against Slc4a1ap | inactive: 0.172
GCAUUUGUACAUUGUGACUTT against Gm503 | inactive: -0.893
CGCUAGCUUAUUUUCCGCCTT against Dirc2 | inactive: 0.274
GCCAUGAAGCUAAAUAAUCTT against Optn | inactive: -0.261
GGGUGUAUUACCUCUCUCUTT against Pygl | inactive: 0.595
GGAGAAAAGGAAGUUGAGGTT against Bnip3l | inactive: 1.23
CGUAAAGCUUCCUGUGUCUTT against 5230400J09Rik | inactive: -0.343
GGUGCACAAUUGACAACCGTT against Hnt | inactive: 0.128

Part of the list above in a different format:
Sequence	z-score
GGAAUGUGCGGAAGACAUATT against Gfer	inactive: 0.244
GGUUGUUCAUGAGCCGAACTT against Rpl18	inactive: -3.01
GCAUCGCAUAUUGGAAUGCTT against Lim2	inactive: 0.395
GGUGUGCGUCACCAAAAAATT against Rgs19ip1	inactive: 0.0333
CCAGAUUGUCACUUGCUACTT against A430090E18Rik	inactive: 0.499
CCUAGUCAUAUUCUACAGUTT against 4931409K22Rik	inactive: -1.06
CCCAAAAGUUUUUACAGCUTT against Ttpa	inactive: 0.0903
GAAGAGGGCACCUAGUUUCTT against Cox7b	inactive: -0.211
GGAAGUGACAUCACAGACGTT against 1810009N02Rik	inactive: -0.298
GGAAAUUCUUUGGUGAAAUTT against Wbscr17	inactive: -0.364
CGAUUUCUGCUCCUCAUUUTT against 9130019O22Rik	inactive: 1.96
GUUUCCGGUCAGAGUGUGATT against Stard10	inactive: -1.78
GGCAAGUGGCUCUUUGGUGTT against Cysltr1	inactive: 0.535
GGACAAAGAAAAUACGAAATT against Olfr593	inactive: 0.121
GGUUGAGUAGUUGAUUUUCTT against Hemgn	inactive: 0.915
GCAAGCUAUCAGGUGCAGUTT against Rnpepl1	inactive: -0.707
GGGUAAACCUCUCUUGUUATT against Hs3st3a	inactive: 1.06
GCCUUUGUUAAUGUUCGCUTT against H28	inactive: 0.488
GGUGGCACGAUGCUAUGUUTT against Gpr109b	inactive: -1.86
CGAGAGAGUGUUACCAUCGTT against Prkcn	inactive: 1.44
GAACUGACUUCACAUAAAGTT against Nrtn	inactive: 1.09
GGAGAGAACUUGUUCAUGATT against 4833432P19Rik	inactive: -0.896
CCUAUACCUUGGACUUCCGTT against 1700018O18Rik	inactive: 2.13
CCACCCUAAUCCAUUUUUGTT against BC053917	inactive: 0.0441
GGAUACCUUCCUCUUACACTT against Bloc1s3	inactive: -0.356

(list continues)

Sequence | z-score
GGCCUAAUUUGAAUAACACTT against 4933436I01Rik | inactive: -0.322
GCCCAACCUGUAUUGGAUCTT against Icosl | inactive: -0.114
GCAGAAAGAAUGACAUUCCTT against Cfc1 | inactive: -1.15
GGCAACUUGUUCCAGCAAUTT against Pdcd8 | inactive: -0.674
GGGACUGGCACCAUUUGUUTT against Cetn4 | inactive: -1.05
GGAGAUCGACGCGUGUAUCTT against 2700029E10Rik | inactive: 0.406
GGGUCAGAACACGUACGAGTT against Gnaz | inactive: 1.12
CGCCGUUGGUUUGCCAGAATT against Defb40 | inactive: -1.28
GGCAAAACUCACACUUACUTT against Poldip2 | inactive: 0.372
GGUUAAUGAUAAGAACCCATT against Hgs | inactive: -0.759
GGUGAAGACUGGAACAAGATT against A930012M17 | inactive: -0.699
GGUUGAUGCAUCAUUCCUATT against Adamts1 | inactive: 2.17
CCAUCUCCCUACUAGGUUGTT against Olfr49 | inactive: 0.136
GGCUACCAAGUUUCAUCAUTT against Tbx22 | inactive: 1.61
CCUAAUCUAGAGCAACACATT against B230218L05Rik | inactive: 0.327
CGGAUACCUAGAGUGCAUCTT against Zfp42 | inactive: 0.0634
GCUAGCCAGUGCAUUCACATT against Srp68 | inactive: -1.82
GGAUAUGUGAAAUGCAUUGTT against Asb9 | inactive: -0.173
GCUAAAACCCGUUACUUCCTT against Gsta4 | inactive: 0.385
GGAAGGAAGUGGAAAUGAGTT against 2700008N14Rik | inactive: -0.0328
GGAGCGAGGUACAACUGAATT against A430031N04 | inactive: -2.35
GGUAAAAGAAGCUCUAAAGTT against Olfr449 | inactive: 0.259
GCCAUGUGUAUGGUAGUCUTT against Olfr1247 | inactive: -0.818
CCUAUCUGGCUUCUGUUAATT against Bin1 | inactive: -0.399
GGUGGUUACCAUCUUACUUTT against Trhr | inactive: 2.04
AGACCUUGAGAACAUUCUUTT against Nkx2-6 | inactive: -1.74

Sequence | z-score
GGAUCUCGAAGUUACUGCATT against Dnajc5b | inactive: -0.0865
GGACAAAGAGUGAAGCCAGTT against Reg4 | inactive: -0.505
GGUCUUUGCUACCAACCUGTT against Fignl1 | inactive: 2.12
CCAGUAGUAUUUAUUGCUUTT against Tcf7l2 | inactive: 1.36
GGAAAUUGCUAUUGCUUCATT against Olfr837 | inactive: 0.086
GGCCGUGAUCUUGGAAUAUTT against Pop4 | inactive: -0.0988
GCUCUUUGGUCGAGAACCATT against Mup5 | inactive: -0.139
GCCUUGGUAUGUUUCUAUUTT against 9330158F14Rik | inactive: 2.88
GGUGAUGGUGUAUGUUGCUTT against Olfr309 | inactive: 1.38
GGGAAGUCUGGACAAUAUGTT against C79127 | inactive: -1.14
GAUGGUCAUUGAUGUCCUUTT against Rps24 | inactive: -2.95
GGACAUUUCUUCUGUUACCTT against A330049M08Rik | inactive: 0.133
GGAGAAUCCUUCCUUGUUUTT against Il2rg | inactive: 0.522
CCCUCCACAGAUGAACACCTT against Lgals4 | inactive: 0.139
AAAGGACUGCCUAAGACAATT against V1rh11 | inactive: -0.00751
GGAAAACAUCCCUUUCGCATT against 1-Sep | inactive: 0.505
CCCAAAAUACAUCAUCAAUTT against Psmc2 | inactive: 0.486
CGCCAGGUAGUGAUAUCAATT against AI427100 | inactive: 2.53
GGAAUGAGAAGGAAAAGGUTT against Arpc4 | inactive: 0.84
GCUCUGUGCACUUAAGAGATT against Mbd3l2 | inactive: -0.203
GGAUGGCUCUAUGCCAAGATT against Mrps27 | inactive: -0.0945
GCACCUCUCUACAUUACUGTT against MGC30332 | inactive: -2.75
CCUAGAGGAAGACUUAUGUTT against Fhl2 | inactive: -0.471
GGAUCACUCCAGGAAGCAATT against Pdlim3 | inactive: -1.66
GGGUCAAUGGUAUUCCCAGTT against 4932411K12 | inactive: -0.177
GGCAGCGAAAAGUCAGAUGTT against Sars1 | inactive: -1.51
